PubChem BioAssay AID2517 (National Center for Advancing Translational Sciences (NCATS), 2010)
Several values for one entry are separate records, joined by “and”; a condition that tells them apart may be missing. Equal values may be shown once. Out of some 350,000 compounds screened, about 1,200 (0.34%) were called active. The inconclusive results got no clear call from the source; some entries with a clear call stand among them for comparison. Calls come from the whole dose curve; as a rule, active = well fitted inhibition curve with a large enough effect; inconclusive = small, poorly fitted or top-dose-only effect; inactive = no such curve, though single readings can be large or run the other way. A potency beside an inconclusive call is a rough fit, not a confirmed value. Some structures have more than one record in an assay (separate samples or runs), and their calls can disagree. Non-standard residues stand in square brackets, D forms with d. Residues, ends and D or L forms follow the SMILES beside them. *: point of attachment. Nle = CCCC[C@H](N)C(=O)O; Boc = CC(C)(C)OC(=O)*

By UniProt entry, the sequences of proteins in these tests, tags left out.
UniProt P27695, whole entry, looked up: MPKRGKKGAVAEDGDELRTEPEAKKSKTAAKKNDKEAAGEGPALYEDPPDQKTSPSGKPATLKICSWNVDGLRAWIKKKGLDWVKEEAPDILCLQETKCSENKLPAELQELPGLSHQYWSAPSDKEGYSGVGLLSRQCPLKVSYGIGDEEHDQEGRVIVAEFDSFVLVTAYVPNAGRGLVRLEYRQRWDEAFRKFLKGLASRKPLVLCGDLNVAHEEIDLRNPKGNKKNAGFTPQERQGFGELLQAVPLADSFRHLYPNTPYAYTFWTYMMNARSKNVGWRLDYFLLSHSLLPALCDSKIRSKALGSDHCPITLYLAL

What follows are compounds tested against DNA repair nuclease/redox regulator APEX1 (Homo sapiens) (UniProt P27695) (assay: qHTS Assay for Inhibitors of the Human Apurinic/apyrimidinic Endonuclease 1 (APE1)). Settings: recombinant APE1, TAMRA/BHQ-2 abasic DNA cleavage fluorescence; activity change, negative = inhibition: at 65.8 µM (top of the series).
Procedure, shortened: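 0.75 nM APE1 + cpd, 15 min RT; start w/ 50 nM TAMRA/BHQ-2 THF-abasic dsDNA; kinetic fluor 525/598 nm ×3 reads @60 s; Δ(read3−read1); normalized to DMSO and NSC13755 control wells.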
Note: nearly all actives have a fitted effect of over 55% in size.
Potency is the fitted concentration of half-maximal effect.
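Throughout, for activity change, negative = inhibition: plate controls were vehicle for no effect and reference inhibitor for full effect.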

SMILES	Potency	activity change, negative = inhibition
Cc1ccc(S(=O)(=O)/N=C2/NC(=O)/C(=C/c3ccc(Br)o3)S2)cc1	inconclusive: 22.4 µM [inhibitor, partial curve]	–
COc1cccc(CNC(=O)C2CCCN(S(=O)(=O)c3c(C)[nH]c(=O)[nH]c3=O)C2)c1 (centres undefined)	inconclusive: 8.91 µM [inhibitor, single point]	–
CCOC(=O)c1sc(NC(=O)C2CC(=O)N(c3ccccc3C)C2)nc1C (centres undefined)	inconclusive: 5.32 µM [inhibitor, single point]	–
O=C(NCCN1CCOCC1)C1CCN(c2nc3ccccc3o2)CC1	inconclusive: 44.7 µM [inhibitor, single point]	–
CCN(Cc1ccccc1)C(=O)Cc1c[nH]c2ccccc12	–	inactive: 40.4%
CN(c1nc2nonc2nc1NC1CC1)C1CCOC1 (centres undefined)	inconclusive: 7.94 µM [inhibitor, single point]	–
Nc1ccccc1S(=O)(=O)Nc1cccc2cccnc12	inconclusive: 22.4 µM [inhibitor, single point]	–
CCCCCCCC/C=C\CCCCCCCC(=O)NCCc1ccc(O)c(O)c1	inconclusive: 15.8 µM [inhibitor, partial curve, poor fit]	–
N#Cc1c(NC(=O)C2CC=CCC2C(=O)O)sc2c1CCCCCC2 (centres undefined)	inconclusive: 31.6 µM [inhibitor, single point]	–
Cc1cccc(Nc2sc(C(=O)c3cc4cc(Cl)ccc4o3)c(N)c2C#N)c1	–	inactive: -0.503%
CC(C)CN(CC(C)C)C(=O)CS(=O)(=O)Cc1ccccc1	inconclusive: 11.2 µM [inhibitor, partial curve, poor fit]	–
COc1cc(C(=O)NC2=C(C#N)CCC2)cc(OC)c1OC	inconclusive: 35.5 µM [inhibitor, single point]	–
CCN1CCN(c2cc(C)c3cc(NC(=S)N4CCCC(C)C4)ccc3n2)CC1 (centres undefined)	inconclusive: 15.8 µM [inhibitor, partial curve, poor fit]	–
O=C1C(c2ccccn2)=[N+]([O-])c2ccccc21	inconclusive: 39.8 µM [inhibitor, single point]	–
C[C@H](NC(=O)Cc1cc(F)cc(F)c1)C(=O)N[C@@H](C(=O)OC(C)(C)C)c1ccccc1	–	inactive: -11.7%
O=C(COC(=O)c1ccc([N+](=O)[O-])s1)NCCc1ccccc1	inconclusive: 37.7 µM [inhibitor, single point]	–
Cc1ccc(CSC2=Nc3sccc3C3=NC(=O)CN23)cc1	–	inactive: 12.3%
CC(C)CN(CC(C)C)C(=O)COc1ccccc1C(N)=O	inconclusive: 20 µM [inhibitor, partial curve, poor fit]	–
O=C(O)CCc1ccc(-c2ccc(Cl)cc2)n1CC(=O)O	–	inactive: -1.78%
Cc1cccc(C2=NN(c3ccccc3)[C@@H](C(=O)N3CCOC3=O)[C@@H]2c2ccc(F)cc2)c1	inactive	–
CN(Cc1ccco1)c1cc(-c2ccc3c(c2)OCO3)ncn1	inconclusive: 39.8 µM [inhibitor, single point]	–
Nc1nc(-c2cccnc2)nn1C(=O)Cc1ccccc1	inconclusive: 39.8 µM [inhibitor, single point]	–
CC(=O)OCC1=C(C(=O)O)N2C(=O)[C@@H](NC(=O)CSc3ccncc3)[C@H]2SC1	active: 25.1 µM	–

SMILES	Potency	activity change, negative = inhibition
CCNc1ncc2nc(-c3ccc(F)cc3)c(=O)n(Cc3ccc(F)cc3)c2n1	inconclusive: 39.8 µM [inhibitor, single point]	–
CCn1c(C(C)NC(=O)c2cccs2)n[nH]c1=S (centres undefined)	inconclusive: 0.251 µM [inhibitor, partial curve, poor fit]	–
O=C(N/N=C/c1ccc(N2CCOCC2)cc1)c1ccccc1OCCOc1ccccc1	inconclusive: 22.4 µM [inhibitor, partial curve, poor fit]	–
CCOc1ccc(C(OC(=O)c2ccco2)C(=O)NCc2ccc(C)cc2)cc1 (centres undefined)	inconclusive: 0.01 µM [inhibitor, full curve, poor fit]	–
CC1(C)S[C@@H]2[C@H](NC(=O)C(N)c3ccccc3)C(=O)N2[C@H]1C(=O)O (some centres undefined)	active: 12.6 µM	–
COc1ccc(CCN2CC(C(=O)NC3CCCCC3)CC2=O)cc1OC (centres undefined)	inconclusive: 28.2 µM [inhibitor, single point]	–
CNS(=O)(=O)c1cccc(C(=O)OCc2cc(=O)oc3c(C)c(O)ccc23)c1	–	inactive: -44%
COC(=O)NC(C(=O)OC)(C(=O)OC)c1ccccc1	–	inactive: 1.81%
CCCCNS(=O)(=O)c1ccc2nc(SCC(=O)Nc3ccccc3)[nH]c2c1	–	inactive: 20.1%
O=C1NC(=O)C(Cc2ccc(OCCN3COc4ccccc4C3=O)cc2)S1 (centres undefined)	–	inactive: 13.4%
CCCSC1=C(C#N)C(c2ccccc2C)C(C(=O)OC)C(=O)N1 (centres undefined)	inconclusive: 56.2 µM [inhibitor, partial curve, poor fit]	–
O=C(O)COc1ccc(OCCNC[C@@H](O)COc2ccccc2)cc1	inconclusive: 44.7 µM [inhibitor, single point]	–
O=C1OC2(c3ccc(O)cc3Oc3cc(O)ccc32)c2ccccc21	active: 25.1 µM and active: 31.6 µM and active: 28.2 µM	–
C/C(=N/NC(=O)Cc1cccs1)c1ccco1	–	inactive: 3.04%
CC1CCCCN1CCNC(=O)c1cc2c(=O)n(C)c3ccccc3c2n1C (centres undefined)	inconclusive: 10 µM [inhibitor, partial curve, poor fit]	–
CCOc1ccc(NC(=O)CN(C)C(=O)c2ccc3nc(CC)c(CC)nc3c2)cc1OCC	–	inactive: 8.39%
Oc1ccc(-c2csc(Nc3ncccn3)n2)cc1O	inconclusive: 0.0282 µM [inhibitor, full curve, poor fit]	–
COC(=O)c1ccccc1NC(=O)c1c(Br)cnn1C	inconclusive: 44.7 µM [inhibitor, single point]	–
O=C(O)CN1C(=O)/C(=C\C(Br)=C\c2ccccc2)SC1=S	–	inactive: -10.8%
Fc1ccc2c(Cl)c(-c3nnc(-c4cccs4)o3)sc2c1	inconclusive: 8.91 µM [inhibitor, single point]	–
O=C1c2ccccc2C(=O)c2[nH]cnc21	–	inactive: 1.46%
Cc1ccc(S(=O)(=O)N[C@H]2COC(=O)C/C=C\[C@@H](C)[C@H](NS(=O)(=O)c3ccc(C)cc3)COC(=O)[C@H](C)NC(=O)C/C=C\[C@H]2C)cc1	inconclusive: 3.16 µM [inhibitor, single point]	–
O=C1C2Sc3[nH]c(=O)sc3C(c3ccccc3)C2C(=O)N1c1ccc(Cl)cc1 (centres undefined)	–	inactive: -6.06%

SMILES	Potency	activity change, negative = inhibition
Nc1ncnc2c1ncn2C1O[C@H](CO)[C@@H](O)[C@@H]1O (some centres undefined)	–	inactive: -1.87%
c1cc2c3c(cccc3c1)NC(c1ccc3c(c1)OCO3)N2	–	inactive: -0.191%
CCN(CCCNC(=O)C1CCN(S(=O)(=O)c2cnc[nH]2)CC1)c1ccccc1	inconclusive: 31.6 µM [inhibitor, single point]	–
Cc1ccc(Cl)cc1NC(=O)COC(=O)c1ccc(COc2ccc3c(C)cc(=O)oc3c2)cc1	inconclusive: 11.2 µM [inhibitor, partial curve, poor fit]	–
CN1CCc2cc(Cl)c(O)cc2C(c2ccccc2)C1 (centres undefined)	–	inactive: -0.547%
Cc1onc2c(=O)n(-c3ccccc3)nc(-c3ccccc3)c12	inconclusive: 3.98 µM [inhibitor, single point]	–
O=C(O)CN1C(=O)/C(=C\c2cccc(OCc3ccccc3F)c2)SC1=S	–	inactive: 12.4%
CC(=O)c1c(O)c(C)c(O)c2c1OC1=CC(=O)C(C(C)=O)C(=O)C12C (centres undefined)	inconclusive: 0.794 µM [inhibitor, full curve, poor fit]	–
C=CCNC(=S)Nc1c(C(=O)OC)[nH]c2cc(OC)ccc12	inconclusive: 7.94 µM [inhibitor, single point]	–
Cc1nc2cnc(N3CCN(C)CC3)nc2n(C2CC2)c1=O	inconclusive: 2.82 µM [inhibitor, partial curve]	–
CSc1nc(C(=O)N2CCc3c([nH]c4ccccc34)C2c2ccccn2)cs1 (centres undefined)	inconclusive: 20 µM [inhibitor, single point]	–
COc1cc(/C=C(\C#N)c2nc3ccc(C)cc3[nH]2)c([N+](=O)[O-])cc1OC	–	inactive: -13.1%
CCCC[C@H](NC(=O)[C@@H]1CCCN1C(=O)[C@H]1CCCN1C(=O)[C@H](Cc1ccccc1)NC(=O)[C@@H](Cc1c[nH]c2ccccc12)NC(=O)[C@H](C)NC(=O)[C@H](CCCN=C(N)N)NC(=O)OC(C)(C)C)C(N)=O (Boc-RA[dW]F[dP]P[Nle]-NH2)	–	inactive: 12.3%
CCCOc1cccc(C(=O)N/N=C/c2ccoc2)c1	inconclusive: 16.8 µM [inhibitor, partial curve]	–
C=CC[C@@H]1C=C[C@H](O/N=C/c2ccc(C(=O)N3[C@H](c4ccc(C)cc4)[C@@H](C)CC[C@H]3C(=O)OC)cc2)[C@@H](CO)O1	–	inactive: 2.48%
C=C(CO)C1Cc2cc(C(C)=O)ccc2O1 (centres undefined)	active: 20 µM	–
COC(=O)Cc1c(C)nc2nc(-c3cccnc3)[nH]n2c1=O	inconclusive: 0.0045 µM [inhibitor, full curve, poor fit]	–
O=c1[nH]c(/C=C\c2cccs2)nc(O)c1[N+](=O)[O-]	inconclusive: 39.8 µM [inhibitor, single point]	–
CCOc1c(O)ccc(/C=C2\SC(=S)NC2=O)c1[N+](=O)[O-]	–	inactive: -3.48%
CCC1=NN2C(=N)/C(=C/c3c(C)nn(-c4ccccc4)c3Cl)C(=O)N=C2S1	–	inactive: 7.16%
O=C(NCCc1ccc(F)cc1)C1CCCO1 (centres undefined)	active: 150 µM	–
Cc1cc(N2CCN(C)CC2)nc2ccc(NC(=S)N3CCCCC3)cc12	inconclusive: 15.8 µM [inhibitor, partial curve]	–
Cc1ccc(S(=O)(=O)N2CCCC2C(=O)N(C)Cc2cccs2)cc1 (centres undefined)	inconclusive: 0.0708 µM [inhibitor, full curve, poor fit]	–

4 of the compounds above, field by field:
C=CC[C@@H]1C=C[C@H](O/N=C/c2ccc(C(=O)N3[C@H](c4ccc(C)cc4)[C@@H](C)CC[C@H]3C(=O)OC)cc2)[C@@H](CO)O1
  activity change, negative = inhibition: inactive: 2.48%
C=C(CO)C1Cc2cc(C(C)=O)ccc2O1 (centres undefined)
  Potency: active: 20 µM
COC(=O)Cc1c(C)nc2nc(-c3cccnc3)[nH]n2c1=O
  Potency: inconclusive: 0.0045 µM [inhibitor, full curve, poor fit]
O=c1[nH]c(/C=C\c2cccs2)nc(O)c1[N+](=O)[O-]
  Potency: inconclusive: 39.8 µM [inhibitor, single point]
